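Counterscreen z-score for each compound in a recombinant Hck-YEEI:Nef Z-Lyte FRET kinase setup using a p-Tyr peptide, with a 50 min kinase step and 60 min development.
Compounds were tested at a single concentration of 10 µM.
The number is a z-score for the p-Tyr peptide counterscreen; higher values mean a stronger counterscreen signal, and values above 3 mark a compound as likely interfering.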

Common to all entries: measured here: p-Tyr peptide counterscreen.
Part of the compounds only, not a random draw; the main read-out is not listed here.

compound,z-score
Cc1ccc(-c2nn(-c3ccccc3)cc2/C=C2\SC(=S)N(CC(=O)O)C2=O)cc1,-0.5906
Cc1cc(C)c2cc(CN(CCO)Cc3nnnn3Cc3ccccc3)c(=O)[nH]c2c1,-1.261
COc1ccccc1NS(=O)(=O)c1cccc(-n2c(O)c(C=Nc3ccccc3C(=O)O)c3ccccc3c2=O)c1,0.5824
CC(=O)n1cc(Nc2ccc([N+](=O)[O-])cc2)c2ccccc21,-1.238
Cc1ccc(C2=NN(C(=O)CSc3nc4ncc(Cl)cc4[nH]3)C(c3ccco3)C2)cc1 (centres unmarked),-2.017
Cc1cc(-c2csc(NC(=O)c3cc4ccccc4o3)n2)c(C)n1C,0.8863
CCCCNC(=O)c1cc2c(=O)n3cccc(C)c3nc2n(Cc2ccncc2)c1=N,14.71
COc1ccccc1C(=O)NNC(=O)C(=O)NC(C)C,-1.746
O=C(CSc1ncnc2c1oc1ccccc12)Nc1cccc(Cl)c1,1.259
CC(=O)OCC1=C(C(=O)O)N2C(=O)C(NC(=O)c3ccc(COc4ccc(Cl)cc4)o3)C2SC1 (centres unmarked),-2.058
C=CCN(CC=C)C(=O)c1cc(Cl)ccc1[N+](=O)[O-],-0.005103
Cc1cc(/C=C2\C(=O)NC(=O)N(Cc3ccco3)C2=O)c(C)n1-c1ccc(C(=O)O)cc1,-0.4859
CCOC(=O)N1CCc2c(sc3nc4n(c(=O)c23)N=C(c2ccc(OC)cc2)CS4)C1,-1.722
O=C(N/N=C/c1ccc([N+](=O)[O-])o1)c1cc(-c2ccc(-c3ccccc3)cc2)nc2ccccc12,-0.7905
COc1ccc(Nc2ccnc(Nc3ccc(OC)cc3)n2)cc1,1.874
Cc1cc(C)c2oc(C(=O)Nc3ccc(S(=O)(=O)Nc4nccs4)cc3)cc(=O)c2c1,0.1167
Cc1cccc(NC(=O)Cn2c(O)c(N=NC(=O)c3ccccc3O)c3ccccc32)c1,2.252
Cc1cc(-c2nc3cccnc3s2)ccc1NS(=O)(=O)c1cccs1,7.427
Cc1ccc(-c2nc(N)s[n+]2-c2ccccc2)cc1,-1.252
NS(=O)(=O)c1ccc(N/N=C/c2ccc(O)cc2O)c([N+](=O)[O-])c1,-1.082
O=Cc1cc(N=Nc2ccccc2Cl)ccc1O,-0.427
CCSc1nc2c(cnn2-c2ccccc2)c(=O)n1N,0.8232
Cc1cccc(Nc2sc(C(=O)c3cc4cc(Cl)ccc4o3)c(N)c2C#N)c1,-1.714
NC(=S)n1[nH]c(-c2ccc([N+](=O)[O-])cc2)c(N=Nc2cccc(Cl)c2)c1=O,-1.306
Cc1ccc2nc3c(cc(C(=O)NCC4CCCO4)c(=N)n3CCCOC(C)C)c(=O)n2c1 (centres unmarked),50.39
Cn1c(=O)[nH]c(=O)c2c1nc(N/N=C/C(Br)=C/c1ccccc1)n2CCO,0.3797
Cc1ccc(NC(=O)COc2ccc(/C=C3/SC(=Nc4ccccc4)N(Cc4cccnc4)C3=O)cc2)cc1,0.9941
COc1cc(OC)cc(C(=O)N=c2sc3ccccc3n2C)c1,-1.822
O=C(/C=C/c1ccco1)Nc1ccccc1C(=O)O,-1.008
CCC(C)Nc1nc(N)c([N+](=O)[O-])c(Nc2cc(OC)ccc2OC)n1 (centres unmarked),-1.496
O=C(c1cnn(C(=O)COc2ccccc2F)c1)c1cc(F)ccc1O,-0.7184
CSc1nsc(/C=C/Nc2ccc(F)cc2F)c1C#N,0.8957
CC(=O)OCC1=C(C(=O)O)N2C(=O)C(NC(=O)C(C)Cn3nc(C)c(Cl)c3C)C2SC1 (centres unmarked),-1.346
O=c1[nH]ncc(N/N=C\c2cccs2)c1Cl,0.5831
Cc1cc(C=C2C(=O)NC(=S)NC2=O)c(C)n1C1CCCC1,-1.675
CC(C)(C)c1cc(-c2csc(Nc3ccccc3)[n+]2Cc2ccc(C(=O)O)cc2)cc(C(C)(C)C)c1O,-1.604
O=C(N/N=C\c1ccc(F)cc1)c1ccc(Cn2cc(Br)c([N+](=O)[O-])n2)o1,-0.9239
COc1ccc(C(=O)n2cc(C(=O)c3cc(C)ccc3O)cn2)cc1OC,-2.152
COc1ccc(NC(=S)N2CCN(CCN3C(=O)c4cccc5cccc(c45)C3=O)CC2)cc1,-2.282
O=C(CSCc1ccc(Cl)cc1)Nc1ccc(-c2nnc(-c3ccccc3)o2)cc1,0.3723
NC(=O)c1c(NC(=O)Cn2nc(C(=O)O)c3ccccc3c2=O)sc2c1CCC2,1.451
CC(=O)Nc1ccc(-c2csc(NC(=O)C3CC(=O)N(c4ccc5c(c4)OCCO5)C3)n2)cc1 (centres unmarked),-0.2788
CCC(Sc1nc2ccccc2c2nc3ccccc3n12)C(=O)NCc1ccco1 (centres unmarked),0.6745
Cc1ccc(-c2nc3cccnc3o2)cc1NC(=O)COc1ccc(Cl)cc1C,2.98
O=C1/C(=C\c2ccco2)SC(=S)N1C1CCS(=O)(=O)C1 (centres unmarked),-1.616
COc1ccc(-n2c(N)c(C(=O)NCc3ccco3)c3nc4ccccc4nc32)cc1,8.048
Cc1cccc(NC(=O)CSc2nc(COc3ccccc3)nc3ccccc23)c1C,0.9581
C(=N\Nc1ncnc2sc3c(c12)CCC3)/c1ccncc1,0.9643
COc1ccc(C2=CC3=C(Br)C(=O)C(C)(O)C(=O)C3=CO2)cc1 (centres unmarked),-2.002
O=C1NN(c2ccccc2)C(=O)/C1=C/c1coc2ccccc2c1=O,1.913
Cc1nn(C)c(C)c1NC(=O)CSc1nc(-c2ccccc2Cl)nc2c1cnn2-c1ccccc1,0.9992
CC(/C=C1\SC(=S)N(NS(=O)(=O)c2ccc(C)cc2)C1=O)=C\c1ccccc1,-1.511
COc1ccc(-c2nc(N3CCOCC3)nc3n[nH]c(N)c23)cc1,0.1924
O=C1CSC(=S)N1/N=C/c1ccc(Cl)c([N+](=O)[O-])c1,0.4028
CC(=O)c1sc2nc(CSc3nnnn3-c3ccccc3)[nH]c(=O)c2c1C,-0.1221
CCOC(=O)c1c(NC(=O)/C=C/C(=O)O)sc(C)c1-c1ccc(F)cc1,-1.27
CCc1nnc(NS(=O)(=O)c2ccc(NC(=S)NC(=O)/C=C/c3ccc(C(C)C)cc3)cc2)s1,0.6966
CC1=C(C#N)C(=O)NC(=O)/C1=C\c1ccc(-c2cc(C)c(C)cc2[N+](=O)[O-])o1,0.3046
Cc1ccc2occ(C3NC(C(=O)O)CS3)c(=O)c2c1 (centres unmarked),-0.922
Cc1cccc(N2C(=O)/C(=C/c3ccc(CN(CCC#N)S(C)(=O)=O)o3)C(=O)NC2=S)c1,1.897
O=CNn1cnc2c(oc3nc(-c4ccccc4)cc(-c4ccco4)c32)c1=O,-1.647
O=c1cc(-c2ccc(O)c(-c3c(O)cc(O)c4c(=O)cc(-c5ccc(O)cc5)oc34)c2)oc2cc(O)cc(O)c12,-0.8372
CC(C)n1cnc2c(Nc3ccc(C(=O)O)cc3)nc(Cl)nc21,-1.817
CC(=O)Nc1ncnc2c1c(-c1ccc(Cl)cc1)nn2C(C)(C)C,-1.04
S=c1[nH]nc(-c2cccc(Cl)c2)n1/N=C/c1ccc(-c2ccccc2Br)o1,-1.84
COc1cc(OC)c(/C=N/NC(=O)c2ccc(NC(C)=O)cc2)cc1Br,-1.372
CC(C)C(C(=O)O)N1C(=O)/C(=C/C=C/c2ccco2)SC1=S (centres unmarked),-2.345

5 of the entries, repeated:

compound,z-score
Cc1nn(C)c(C)c1NC(=O)CSc1nc(-c2ccccc2Cl)nc2c1cnn2-c1ccccc1,0.9992
Cc1ccc(C2=NN(C(=O)CSc3nc4ncc(Cl)cc4[nH]3)C(c3ccco3)C2)cc1 (centres unmarked),-2.017
CC(=O)OCC1=C(C(=O)O)N2C(=O)C(NC(=O)c3ccc(COc4ccc(Cl)cc4)o3)C2SC1 (centres unmarked),-2.058
CCC(C)Nc1nc(N)c([N+](=O)[O-])c(Nc2cc(OC)ccc2OC)n1 (centres unmarked),-1.496
CCOC(=O)N1CCc2c(sc3nc4n(c(=O)c23)N=C(c2ccc(OC)cc2)CS4)C1,-1.722

The results are deposited in PubChem (AID463188; University of Pittsburgh Molecular Library Screening Center, 2010).